# Measurements as given in PubChem BioAssay AID1347072 (National Center for Advancing Translational Sciences (NCATS), 2019).
# Sequences of proteins named here, by UniProt entry; tags and fusion partners are left off. A change or cut given only in a name is not applied to a line headed by its entry.
# UniProt P51570: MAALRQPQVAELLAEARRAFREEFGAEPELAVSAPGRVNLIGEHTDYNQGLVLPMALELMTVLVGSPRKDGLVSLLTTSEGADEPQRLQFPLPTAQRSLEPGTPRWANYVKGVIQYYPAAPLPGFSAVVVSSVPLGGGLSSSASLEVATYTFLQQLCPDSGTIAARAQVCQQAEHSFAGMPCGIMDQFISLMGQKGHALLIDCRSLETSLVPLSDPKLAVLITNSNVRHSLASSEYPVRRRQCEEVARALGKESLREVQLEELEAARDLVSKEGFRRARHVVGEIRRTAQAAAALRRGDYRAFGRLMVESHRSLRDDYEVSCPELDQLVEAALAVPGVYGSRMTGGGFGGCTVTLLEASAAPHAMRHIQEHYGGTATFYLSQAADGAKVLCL
# In all, about 44,000 compounds went through this assay and fewer than 10 were called active. This list was built around the results that the source calls inconclusive (neither active nor inactive); the mix of calls is not that of the screen. Calls follow the shape of the dose curve; as a rule, active = well fitted curve in the direction sought with a large enough effect; inconclusive = small, poorly fitted or top-dose-only effect, or another doubt; inactive = no such curve, though single readings can be large or run the other way. A potency beside an inconclusive call is a rough fit, not a confirmed value.
# Target: Galactokinase (Homo sapiens) (UniProt P51570)
# Experiment: qHTS Assay for Inhibitors of Human Galactokinase (GALK): NCGC Sytravon Library Screen;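 as to activity, negative = inhibition: plate controls were full GALK reaction for no effect and reaction lacking GALK for full effect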
# Conditions: recombinant GALK, Kinase-Glo ATP luminescence, 1 h; series mostly up to 57.5 µM; activity, negative = inhibition: at the top concentration
# Description: Inherited deficiency of galactose-1-phosphate uridyltransferase (GALT) can result in a potentially lethal disorder called Classic Galactosemia (OMIM 230400). Several lines of evidence indicate that an elevated level of galactose-1-phosphate (gal-1-p), the product of galactokinase (GALK), is a major, if not sole, pathogenic mechanism in patients with classic galactosemia. Therefore, finding inhibitors of GALK is a potential novel therapy for this inherent metabolic disease and is the long term goal of this project. This screen is run against the NCGC Sytravon compound library collection. GALK (provided by Kent Lai) was assayed using ATP and D-(+)-Galactose (Sigma-Aldrich cat# G0750) as substrates. Promega Kinase-Glo Plus technology was used to detect kinase activity. Reactions with and without GALK were used as negative and positive controls together with Protein Tyrosine Phosphatase CD45 inhibitor (EMD Bioscience cat# 540215) which is shown to inhibit GALK activity. Decrease in activity corresponds to inhibition of the enzyme is the desired outcome for this assay. NIH Molecular Libraries Probe Production Network [MLPCN] NIH Chemical Genomics Center [NCGC] Grant: R03 MH085689-01 PI Name: Kent Lai Ph.D., University of Utah
# NCGC Assay Protocol Summary: Three uL/well of ATP-buffer solution (35 uM ATP, 20mM HEPES pH8.0, 5 mM MgCl2, 60 mM NaCl, 1 mM DTT, 0.01% BSA final concentration) was dispensed into 1536-well, assay plates (Greiner, solid white medium-binding plates) with Aurora Discovery BioRAPTR Flying Reagent Dispenser (FRD; Beckton-Dickenson). Compound solution (23 nL) was transferred to the assay plate using the Kalypsys 1536-pin tool. One uL/well GALK-galactose solution (5 nM GALK, 100 uM galactose, 20 mM HEPES pH8.0, 5 mM MgCl2, 60 mM NaCl, 1 mM DTT, 0.01% BSA final concentration) was then added using the FRD yielding a total kinase reaction volume of 4 uL/ well. After 1 hour of room temperature incubation, 4 uL Kinase-Glo Plus reagent was added for a final assay volume of 8 uL/ well. Luminescence was detected with the ViewLux plate reader (Perkin Elmer, Waltham, MA) after 10 min incubation using a 1 sec exposure time and 2x binning.
Structure (SMILES),Potency,"activity, negative = inhibition"
O=C(Nc1ccc2oc(-c3ccc4ccccc4c3)nc2c1)c1cc(Br)ccc1Cl,"inconclusive: 17.8 µM [inhibitor, partial curve, poor fit]",–
COc1ccc(NC(=O)CN(C)S(=O)(=O)c2ccc3[nH]c4c(c3c2)CCCC4)cc1OC,–,inactive: -6.67%
CCc1nc(-c2cc(S(=O)(=O)N3CCN(c4ccc(OC)cc4)CC3)ccc2OC)no1,–,inactive: 3.93%
Cc1ccc(NC(=O)CN2C(=O)CCc3ccccc32)cc1C,"inconclusive: 31.6 µM [inhibitor, partial curve, poor fit]",–
CSc1ccc(CCNC(=O)Cn2ncc3c(=O)oc4ccc(C)cc4c32)cc1,–,inactive: 6.42%
Cc1nn(CC(=O)NCc2ccc(OC(C)C)cc2)c(=O)c2c(C)n(-c3ccc(Cl)cc3)nc12,"inconclusive: 39.8 µM [inhibitor, partial curve, poor fit]",–
COC(=O)c1ccccc1NC(=O)Cc1noc2ccc(C)cc12,"inconclusive: 7.08 µM [inhibitor, partial curve, poor fit]",–
O=C(Nc1ccc(Cl)c(Cl)c1)N1CCC(c2ccccc2)C1 (centres undefined),–,inactive: 1.61%
Cn1c(SCC(=O)Nc2nc3ccccc3s2)ncc(C(=O)Nc2ccccc2)c1=O,–,inactive: -1.97%
Cc1ccc(OCC(=O)Nc2ccc(S(=O)(=O)Nc3cc(C)on3)cc2)c(Br)c1,–,inactive: -0.305%
Cc1cc(C)cc(NC(=O)CSc2nncn3c2cc2occc23)c1,"inconclusive: 2 µM [inhibitor, full curve, poor fit]",–
COc1ccc(Cl)cc1NC(=O)CSc1ccc(-c2sc(C)nc2C)nn1,"inconclusive: 0.224 µM [inhibitor, full curve, poor fit]",–
CCn1nc(-c2ccccc2)c(-c2ccccc2)c(C(=O)Nc2nc(C)c(C(=O)N(C)C)s2)c1=O,"inconclusive: 39.8 µM [inhibitor, partial curve, poor fit]",–
CNS(=O)(=O)c1cn(CC(=O)N2CCN(c3ccc(OC)cc3)CC2)cc1S(=O)(=O)NC,"inconclusive: 25.1 µM [inhibitor, partial curve, poor fit]",–
Cc1cc2c(cc3c(SCc4ccc(Cl)cc4)nnc(C)n32)o1,"inconclusive: 1.58 µM [inhibitor, partial curve, poor fit]",–
CCOCCCn1c(=N)c(C(=O)NCc2ccco2)cc2c(=O)n3ccccc3nc21,–,inactive: 0%
CC(C)NC(=O)c1ccc(Cn2c(=O)c3cccn3c3cccnc32)cc1,"inconclusive: 8.91 µM [inhibitor, partial curve, poor fit]",–
COc1ccc(-c2nn(C)c3sc(C(=O)N4CCN(c5ccccc5F)CC4)cc23)cc1OC,"inconclusive: 3.55 µM [inhibitor, partial curve, poor fit]",–
COc1cc(/C=C/c2nc(C#N)c(NCCc3ccccc3)o2)cc(OC)c1OC,"inconclusive: 35.5 µM [inhibitor, partial curve, poor fit]",–
CC(C)c1ccc2c(c1)-c1ccccc1S(=O)(=O)N2CC(=O)N1CCCCC1,"inconclusive: 0.126 µM [inhibitor, full curve, poor fit]",–
COC(=O)c1cc(NC(=O)c2sc3ncn(Cc4cccc(F)c4)c(=O)c3c2C)cc(C(=O)OC)c1,–,inactive: -4.12%
CCCc1nnc(NC(=O)Nc2ccccc2Cl)s1,–,inactive: -6.53%

# Part of the list above, as tab-separated lines:
Structure (SMILES)	Potency	activity, negative = inhibition
CC(C)NC(=O)c1ccc(Cn2c(=O)c3cccn3c3cccnc32)cc1	inconclusive: 8.91 µM [inhibitor, partial curve, poor fit]	–
CC(C)c1ccc2c(c1)-c1ccccc1S(=O)(=O)N2CC(=O)N1CCCCC1	inconclusive: 0.126 µM [inhibitor, full curve, poor fit]	–

# Additional results.

Structure (SMILES),Potency,"activity, negative = inhibition"
Cc1noc2ncnc(N3CCN(c4cccc(C(F)(F)F)c4)CC3)c12,–,inactive: 1.92%
Cc1cc(C)cc(OCC(=O)Nc2cccc3cccnc23)c1,"inconclusive: 25.1 µM [inhibitor, partial curve, poor fit]",–
CC(=O)Nc1cccc(-c2nc(-c3ccccc3)no2)c1,–,inactive: -0.973%
Cc1cccc(NS(=O)(=O)c2ccc3[nH]c4c(c3c2)CCCCCC4)c1,"inconclusive: 44.7 µM [inhibitor, partial curve, poor fit]",–
CCOc1ccc(NC(=O)c2ccc3c(c2)CCN3S(=O)(=O)CC)cc1,–,inactive: -13.1%
CC(C)C(=O)Nc1nc2c(s1)CC(C(C)(C)C)CC2 (centres undefined),"inconclusive: 1.26 µM [inhibitor, full curve, poor fit]",–
COc1ccc(C2C=C(c3ccc(Cl)cc3)Nc3nc(-c4ccc(Cl)cc4)nn32)cc1 (centres undefined),–,inactive: 0.48%
NC1=NC(c2cccc(Cl)c2)n2c(nc3ccccc32)N1 (centres undefined),"inconclusive: 39.8 µM [inhibitor, partial curve, poor fit]",–
CCCCc1ccc(NC(=O)c2ccc3c(c2)CCN3S(=O)(=O)CC)cc1,–,inactive: 1.98%
CCN(CC)C(=O)CSc1nc(-c2ccc(C)cc2)nc2c1Cc1c(CO)cnc(C)c1O2,"inconclusive: 0.891 µM [inhibitor, full curve, poor fit]",–
Cc1ccc(C(=O)Nc2c(C)nc3ccccn3c2=O)cc1C,–,inactive: -4.66%
O=C(Nc1nnc(S(=O)(=O)N2CCCCC2)s1)c1ccccc1Br,"inconclusive: 7.08 µM [inhibitor, partial curve, poor fit]",–
Cc1ccc(NC(=O)c2ccc3c(O)c(S(=O)(=O)c4ccccc4)c(=O)[nH]c3c2)cc1Cl,"inconclusive: 31.6 µM [inhibitor, partial curve, poor fit]",–
CCN(c1ccccc1)S(=O)(=O)c1c(-c2ccc(C)cc2)csc1C(=O)OC,"inconclusive: 0.224 µM [inhibitor, full curve, poor fit]",–
Cc1ccc(Cl)cc1NC(=O)Cn1c(=O)n(C(C)C)c(=O)c2oc3ccccc3c21,"inconclusive: 0.355 µM [inhibitor, full curve, poor fit]",–
Cc1cccc(NC(=O)N2CCC(CN3CCCCCC3)CC2)c1C,"inconclusive: 7.94 µM [inhibitor, full curve, poor fit]",–
CCOc1cc2c(cc1OCC)C(CC(=O)O)N(C(=O)Nc1ccc(Br)c(C)c1)CC2 (centres undefined),"inconclusive: 25.1 µM [inhibitor, partial curve, poor fit]",–
Cc1ccccc1CNC(=O)CCC(=O)N1CCSc2ccccc21,"inconclusive: 0.708 µM [inhibitor, full curve, poor fit]",–
O=c1c2oc3ccccc3c2n(Cc2ccccc2Cl)c(=O)n1Cc1ccco1,"inconclusive: 0.891 µM [inhibitor, partial curve, poor fit]",–
CCOc1cccc(C2c3c(oc4ccc(F)cc4c3=O)C(=O)N2CCc2ccc(OC)cc2)c1 (centres undefined),"inconclusive: 39.8 µM [inhibitor, partial curve, poor fit]",–
COc1ccc2nc(N(Cc3cccnc3)C(=O)c3ccc4c(c3)OCCO4)sc2c1,"inconclusive: 35.5 µM [inhibitor, partial curve, poor fit]",–
CCOc1ccc(CNC(=O)c2cccc(NC(=O)N3CCSc4ncccc43)c2)cc1,"inconclusive: 0.891 µM [inhibitor, full curve, poor fit]",–

Structure (SMILES),Potency,"activity, negative = inhibition"
CCCCN(CC)C(=O)c1cc2c(=O)n3ccccc3nc2n1C,"inconclusive: 7.08 µM [inhibitor, partial curve, poor fit]",–
COc1ccc(N(Cc2cccs2)C(=O)c2ccc(C(C)(C)C)cc2)cc1,"inconclusive: 1 µM [inhibitor, full curve, poor fit]",–
CCn1c(=O)sc2cc(NS(=O)(=O)c3ccc(C)cc3)ccc21,–,inactive: -6.69%
Cc1cc(C)cc(OCC(=O)Nc2c(C(=O)c3ccccc3)oc3ccccc23)c1,"inconclusive: 39.8 µM [inhibitor, single point]",–
CC(=O)c1sc(N2C(=O)c3oc4ccccc4c(=O)c3C2c2ccc(C)cc2)nc1C (centres undefined),"inconclusive: 39.8 µM [inhibitor, single point]",–
COc1ccc(-c2nc(CSCC(=O)N3CCN(c4ccc(F)cc4)CC3)c(C)o2)cc1,–,inactive: -0.529%
O=C(COc1ccc([N+](=O)[O-])cc1)Nc1nc2c(s1)CCCC2,"inconclusive: 3.55 µM [inhibitor, full curve, poor fit]",–
Cc1cccc(CSc2ncc(Cl)c(C(=O)Nc3nc4ccc(F)cc4s3)n2)c1,"inconclusive: 39.8 µM [inhibitor, partial curve, poor fit]",–
COc1cc(OC)cc(-c2cc3nc(C)c(CCC(=O)NCc4ccc(Cl)cc4)c(C)n3n2)c1,–,inactive: 7.93%
COc1ccc(N(Cc2cccs2)C(=O)c2ccc(OCC(C)C)cc2)cc1,"inconclusive: 7.08 µM [inhibitor, full curve, poor fit]",–
CCOC(=O)c1cc(OC(=O)c2ccccc2C)n(-c2ccccc2)n1,"inconclusive: 22.4 µM [inhibitor, partial curve, poor fit]",–
c1ccc(CSc2nc3ncccc3[nH]2)cc1,"inconclusive: 1.78 µM [inhibitor, full curve, poor fit]",–
COc1cc(C(=O)NC(c2ccc(Cl)cc2)c2cc(Cl)c3cccnc3c2O)cc(OC)c1OC (centres undefined),–,inactive: -5.07%
COc1ccccc1-c1nn2c(=O)cc(CN3CCN(C(=O)/C=C/c4ccccc4)CC3)nc2s1,"inconclusive: 5.01 µM [inhibitor, full curve, poor fit]",–
Cc1ccc(C)c(N(C)C(=O)Cc2c(C(=O)O)[nH]c3ccc(Cl)cc23)c1,–,inactive: 1.62%
COc1cc(CN(C(=O)c2ccc(Cl)cc2)C2CCS(=O)(=O)C2)cc(OC)c1OC (centres undefined),–,inactive: -1.32%
Cc1ccc(-n2ncc3c(NCCCN4CCOCC4)ncnc32)cc1Cl,–,inactive: -0.714%
CSc1ncc(Cl)c(C(=O)Nc2ccc(S(=O)(=O)N3CCC(C)CC3)cc2)n1,–,inactive: -2.87%
COCCN1C(=O)c2oc3cc(C)cc(C)c3c(=O)c2C1c1cccc(O)c1 (centres undefined),"inconclusive: 35.5 µM [inhibitor, partial curve, poor fit]",–
Cc1ccc(-n2ncc3c(N4CCN(c5ccccc5)CC4)ncnc32)cc1C,–,inactive: 1.57%
